The hits were mostly taken out for another list; the other results follow. Active and inactive are the calls of the source. Rule for the calls: active = hit-call score of the fitted dose curve at least 0.9, where 1 is the maximum; inactive = score below 0.9.
What was measured:
Conditions in all cases: actives raise or lower the signal; mRNA level, 48 h
[1] = read-out: Tumor necrosis factor receptor superfamily member 6 (Homo sapiens) (UniProt P25445); test: LTEA_HepaRG_FAS: Life Technologies and Expression Analysis (LTEA) Assay for Fas cell surface death receptor (FAS) using HepaRG (AID 2283447)
In short: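 Differentiated HepaRG cells in serum-free induction medium were exposed 48 h to 8 half-log concentrations up to 100 uM in 0.5% DMSO, in duplicate. FAS mRNA was measured by qRT-PCR normalised to ACTB, GAPDH and POLR2A; bidirectional fit versus DMSO.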

[2] = read-out: Pro-epidermal growth factor (Homo sapiens) (UniProt P01133); test: LTEA_HepaRG_EGF: Life Technologies and Expression Analysis (LTEA) Assay for Epidermal growth factor (EGF) using HepaRG (AID 2283489)
Protocol: LTEA_HepaRG is a cell based, multiplexed-readout assay that uses HepaRG, a human liver cell line, with measurements taken at 48 hours after chemical dosing on a 96-well plate.LTEA_HepaRG_EGF is one of 102 assay component(s) measured in the LTEA HepaRG cell culture assay. It is a marker of Cell proliferation, survival, death.Data from the assay component LTEA_HepaRG_EGF was analyzed into 1 endpoint. This assay endpoint, LTEA_HepaRG_EGF, was analyzed with bidirectional fitting relative to DMSO as the negative control and baseline of activity. Using a type of inducible reporter, measures of mRNA induction for gain or loss-of-signal activity can be used to understand regulation of transcription factor activity. To generalize the intended target to other relatable targets, this assay endpoint is annotated to the growth factor intended target family, where the subfamily is EGF-like domain.
A total of 1060 chemcials from the ToxCast library were tested in eight-point concentration-response experiments. Cell culture and cytotoxicity assays were conducted at Thermo Fisher Scientific's Custom Services facility (Madison, WI). […] Fluidigm's 96.96 Dynamic ArrayTM (Fluidigm, Amsterdam, the Netherlands) technology was used for gene expression analyses by quantitative reverse transcription polymerase chain reaction (qRT-PCR, performed by Quintiles/Expression Analysis, Durham, NC)89. […]

[3] = read-out: Cytochrome P450 7A1 (Homo sapiens) (UniProt P22680); test: LTEA_HepaRG_CYP7A1: Life Technologies and Expression Analysis (LTEA) Assay for Cytochrome P450 7A1 (CYP7A1) using HepaRG (AID 2283496)
In short: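 Gene expression endpoint in human HepaRG liver cells treated for 48 h with test chemicals (up to 100 uM, 0.5% DMSO). Values come from bidirectional concentration-response fitting versus DMSO.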

Measured: outcome

CCCCCCCCc1ccc(O)cc1
inactive: all assays above

— PubChem BioAssay (EPA / NIEHS)
